# The supplement of paper PMC7024190
# The other results are listed elsewhere or left out. Single values are uncertain here, since repeats match poorly.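 A first-round screen of about ten thousand compounds sought those raising reporter output, using human embryonic kidney cells briefly transfected with a plasmid carrying a Renilla luciferase gene driven by the HSV-TK promoter.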
# System: HEK 293FT
# Experiment: log relative Renilla luciferase luminescence (reporter expression vs reference, reference not stated) (log (base not stated)); higher = higher recombinant reporter expression
# Conditions: 10 µM; time after transfection 48 h
row,Compound,log
1,CC1(C)C[C@@H]1C(=O)N/C(=C\CCCCSC[C@H](N)C(=O)O)C(=O)O,-0.128
2,CC(C)(C)C(O)/C=C/c1ccc2c(c1)OCO2 (stereo not given) [Stiripentol],0.0127
3,O=C(O)Cc1ccccc1Nc1c(Cl)cccc1Cl,0.245
4,CN(C)CCOC(c1ccccc1)c1ccccc1,0.126
5,NC(=O)c1cccnc1,-0.0247
6,CN(C)CC[C@@H](c1ccc(Br)cc1)c1ccccn1,-0.437
7,Cc1ncc([N+](=O)[O-])n1CC(O)CCl (stereo not given),-0.313
8,CCc1ccc(CCOc2ccc(CC3SC(=O)NC3=O)cc2)nc1 (stereo not given),-0.126
9,CC(C)[C@H](N)C(=O)OCCOCn1cnc2c(=O)nc(N)[nH]c21,0.0634
10,N[C@@H](C(=O)N[C@@H]1C(=O)N2C(C(=O)O)=C(Cl)CS[C@H]12)c1ccccc1,0.0439
11,CCC(C)(C)N=C(NC#N)Nc1cccnc1,-0.0614
12,CNC(=C[N+](=O)[O-])NCCSCc1csc(CN(C)C)n1,0.0639
13,CC(=O)Oc1ccccc1C(=O)Nc1ncc([N+](=O)[O-])s1,-1.4
14,CCC1=C[C@H]2CN(C1)Cc1c([nH]c3ccccc13)[C@@](C(=O)OC)(c1cc3c(cc1OC)N(C)[C@H]1[C@@](O)(C(=O)OC)[C@H](OC(C)=O)[C@]4(CC)C=CCN5CC[C@]31[C@@H]54)C2,-0.541
15,Cc1[nH]cnc1CN1CCc2c(c3ccccc3n2C)C1=O,-0.081
16,Cc1cccc(Nc2ccncc2S(=O)(=O)NC(=O)NC(C)C)c1,-0.146
17,CC(C)C[C@H](NC(=O)[C@@H](O)[C@H](N)Cc1ccccc1)C(=O)O,-0.0897
18,COC(=O)C1=C(C)NC(C)=C(C(=O)OC)C1c1ccccc1[N+](=O)[O-],0.166
19,CC(=O)OCC(CCn1cnc2cnc(N)nc21)COC(C)=O,0.161
20,O=C1CN2Cc3c(ccc(Cl)c3Cl)N=C2N1,-0.139

# Among those listed so far, these have an NH in an aromatic ring.
row,Compound,log
9,CC(C)[C@H](N)C(=O)OCCOCn1cnc2c(=O)nc(N)[nH]c21,0.0634
14,CCC1=C[C@H]2CN(C1)Cc1c([nH]c3ccccc13)[C@@](C(=O)OC)(c1cc3c(cc1OC)N(C)[C@H]1[C@@](O)(C(=O)OC)[C@H](OC(C)=O)[C@]4(CC)C=CCN5CC[C@]31[C@@H]54)C2,-0.541
15,Cc1[nH]cnc1CN1CCc2c(c3ccccc3n2C)C1=O,-0.081

# (cont.)

row,Compound,log
1,OCc1cccnc1,0.078
2,Cc1ccnc2c1NC(=O)c1cccnc1N2C1CC1 [Viramune],-0.105
3,C[C@]12CC[C@@H]3c4ccc(O)cc4CC[C@H]3[C@@H]1CC[C@@H]2O,0.0839
4,COCC1=C(C(=O)OC(C)OC(=O)OC(C)C)N2C(=O)[C@@H](NC(=O)/C(=N\OC)c3csc(N)n3)[C@H]2SC1 (stereo not given in full),0.0785
5,CC(C)(C)NC(=O)[C@@H]1CN(Cc2cccnc2)CCN1C[C@@H](O)C[C@@H](Cc1ccccc1)C(=O)N[C@H]1c2ccccc2C[C@H]1O,-0.145
6,CCC1=C(C)CN(C(=O)NCCc2ccc(S(=O)(=O)NC(=O)N[C@H]3CC[C@H](C)CC3)cc2)C1=O,0.13
7,O=C1N(c2ccccc2)c2ccccc2C1(Cc1ccncc1)Cc1ccncc1,0.0603
8,Cc1cn([C@H]2C=C[C@@H](CO)O2)c(=O)[nH]c1=O,-0.0116
9,CCN(CC)C(=O)C1(c2ccccc2)CC1CN (stereo not given) [Milnacipran],-0.0854
10,C[C@]12CC[C@@H]3c4ccc(OS(=O)(=O)O)cc4CC[C@H]3[C@@H]1CCC2=O,0.0685
11,CN(CCCN1c2ccccc2CCc2ccccc21)CC(=O)c1ccc(Cl)cc1,0.14
12,CC(C)(C)NC(=O)[C@H]1CC[C@H]2[C@@H]3CC[C@H]4NC(=O)C=C[C@]4(C)[C@H]3CC[C@]12C,-0.247
13,CNCC[C@H](Oc1cccc2ccccc12)c1cccs1 [Duloxetine],0.196
14,COC(=O)C1=C(C)NC(C)=C(C(=O)OC2CCCN(Cc3ccccc3)C2)C1c1cccc([N+](=O)[O-])c1 (stereo not given),-1.08
15,NC(N)=NC(=O)c1nc(Cl)c(N)nc1N,0.0618
16,Nc1nc2ccc(OC(F)(F)F)cc2s1 [Riluzole],0.0932
17,CS(=O)(=O)c1ccc(C2=C(c3ccccc3)C(=O)OC2)cc1,0.15
18,NC1CCN(c2nc3c(cc2F)c(=O)c(C(=O)O)cn3-c2ccc(F)cc2F)C1 (stereo not given),-0.0466
19,Cc1nc2n(c(=O)c1CCN1CCC(c3noc4cc(F)ccc34)CC1)CCCC2,-0.0927
20,O=C(O)CCc1nc(-c2ccccc2)c(-c2ccccc2)o1,-0.236
